Test results reported in US20240109968A1 (NEW YORK UNIVERSITY, published 2024).
Results are given in words; binding and its absence hold for the method and conditions named. Some entries that bind do so weakly or less than the wild type. Each block holds one binder with its values, some of them ahead of it.

Assays:
[1] = target: human galectin-9 on the cell surface (CRL-2134 cell line; cells of patient tumor organoid fractions) (human) (UniProt O00182); experiment: flow cytometry on cells of S2 and S3 fractions of human tumor biopsies
[2] = target: human galectin-9 on the cell surface (CRL-2134 cell line; cells of patient tumor organoid fractions) (human) (UniProt O00182); experiment: flow cytometry, colorectal carcinoma biopsy, S3 fraction, CD3+ cells; readout % Gal9+ cells
[3] = target: human galectin-9 on the cell surface (CRL-2134 cell line; cells of patient tumor organoid fractions) (human) (UniProt O00182); experiment: flow cytometry, colorectal carcinoma biopsy, S2 fraction, CD3+ cells; readout % Gal9+ cells
[4] = target: human galectin-9 on the cell surface (CRL-2134 cell line; cells of patient tumor organoid fractions) (human) (UniProt O00182); experiment: flow cytometry, colorectal carcinoma biopsy, S3 fraction, CD11b+ cells; readout % Gal9+ cells
[5] = target: human galectin-9 on the cell surface (CRL-2134 cell line; cells of patient tumor organoid fractions) (human) (UniProt O00182); experiment: flow cytometry, colorectal carcinoma biopsy, S3 fraction, EpCam+ cells; readout % Gal9+ cells
[6] = target: human galectin-9 on the cell surface (CRL-2134 cell line; cells of patient tumor organoid fractions) (human) (UniProt O00182); experiment: flow cytometry, colorectal carcinoma biopsy, S2 fraction, CD11b+ cells; readout % Gal9+ cells
[7] = target: human galectin-9 on the cell surface (CRL-2134 cell line; cells of patient tumor organoid fractions) (human) (UniProt O00182); experiment: flow cytometry, colorectal carcinoma biopsy, S2 fraction, EpCam+ cells; readout % Gal9+ cells
[8] = target: human galectin-9 on the cell surface (CRL-2134 cell line; cells of patient tumor organoid fractions) (human) (UniProt O00182); experiment: flow cytometry, pancreatic adenocarcinoma biopsy, S3 fraction, CD3+ cells; readout % Gal9+ cells
[9] = target: human galectin-9 on the cell surface (CRL-2134 cell line; cells of patient tumor organoid fractions) (human) (UniProt O00182); experiment: flow cytometry, pancreatic adenocarcinoma biopsy, S2 fraction, CD3+ cells; readout % Gal9+ cells
[10] = target: human galectin-9 on the cell surface (CRL-2134 cell line; cells of patient tumor organoid fractions) (human) (UniProt O00182); experiment: flow cytometry, pancreatic adenocarcinoma biopsy, S3 fraction, CD11b+ cells; readout % Gal9+ cells
[11] = target: human galectin-9 on the cell surface (CRL-2134 cell line; cells of patient tumor organoid fractions) (human) (UniProt O00182); experiment: flow cytometry, pancreatic adenocarcinoma biopsy, S3 fraction, EpCam+ cells; readout % Gal9+ cells
[12] = target: human galectin-9 on the cell surface (CRL-2134 cell line; cells of patient tumor organoid fractions) (human) (UniProt O00182); experiment: flow cytometry, pancreatic adenocarcinoma biopsy, S2 fraction, CD11b+ cells; readout % Gal9+ cells
[13] = target: human galectin-9 on the cell surface (CRL-2134 cell line; cells of patient tumor organoid fractions) (human) (UniProt O00182); experiment: flow cytometry, pancreatic adenocarcinoma biopsy, S2 fraction, EpCam+ cells; readout % Gal9+ cells
[14] = target: human galectin-9 on the cell surface (CRL-2134 cell line; cells of patient tumor organoid fractions) (human) (UniProt O00182); experiment: flow cytometry, second pancreatic adenocarcinoma biopsy, S3 fraction, CD3+ cells; readout % Gal9+ cells
[15] = target: human galectin-9 on the cell surface (CRL-2134 cell line; cells of patient tumor organoid fractions) (human) (UniProt O00182); experiment: flow cytometry, second pancreatic adenocarcinoma biopsy, S2 fraction, CD3+ cells; readout % Gal9+ cells
[16] = target: human galectin-9 on the cell surface (CRL-2134 cell line; cells of patient tumor organoid fractions) (human) (UniProt O00182); experiment: flow cytometry, second pancreatic adenocarcinoma biopsy, S3 fraction, CD11b+ cells; readout % Gal9+ cells
[17] = target: human galectin-9 on the cell surface (CRL-2134 cell line; cells of patient tumor organoid fractions) (human) (UniProt O00182); experiment: flow cytometry, second pancreatic adenocarcinoma biopsy, S3 fraction, EpCam+ cells; readout % Gal9+ cells
[18] = target: human galectin-9 on the cell surface (CRL-2134 cell line; cells of patient tumor organoid fractions) (human) (UniProt O00182); experiment: flow cytometry, second pancreatic adenocarcinoma biopsy, S2 fraction, CD11b+ cells; readout % Gal9+ cells
[19] = target: human galectin-9 on the cell surface (CRL-2134 cell line; cells of patient tumor organoid fractions) (human) (UniProt O00182); experiment: flow cytometry, second pancreatic adenocarcinoma biopsy, S2 fraction, EpCam+ cells; readout % Gal9+ cells
[20] = target: cynomolgus monkey galectin-9 CRD2 domain (cynomolgus monkey); experiment: bead-based binding assay
[21] = target: human galectin-9 on the cell surface (CRL-2134 cell line; cells of patient tumor organoid fractions) (human) (UniProt O00182); experiment: cell-based binding, CRL-2134 cells
[22] = target: cynomolgus monkey galectin-9 CRD2 domain (cynomolgus monkey); experiment: summary of in vitro binding studies
[23] = target: Galectin-9 on the HuProt Human Proteome Microarray (human) (UniProt O00182); experiment: HuProt array, High-Spec antibody cross-reactivity assay
[24] = target: human galectin-9 on the cell surface (CRL-2134 cell line; cells of patient tumor organoid fractions) (human) (UniProt O00182); experiment: cell surface staining, flow cytometry on CRL-2134 cells
[25] = target: Galectin-9 on the HuProt Human Proteome Microarray (human) (UniProt O00182); experiment: CDI HuProt Human Proteome Microarray, fluorescent secondary antibody

binding [1]: binds | binding [2]: binds | binding [3]: binds | binding [4]: binds | binding [5]: binds | binding [6]: binds | binding [7]: binds | binding [8]: binds | binding [9]: binds | binding [10]: binds | binding [11]: binds | binding [12]: binds | binding [13]: binds | binding [14]: binds | binding [15]: binds | binding [16]: binds | binding [17]: binds | binding [18]: binds | binding [19]: binds
B1: G9.2-17 Fab (Fab, V domains shown)
VH: EVQLVESGGGLVQPGGSLRLSCAASGFTVSSSSIHWVRQAPGKGLEWVAYISSSSGYTYYADSVKGRFTISADTSKNTAYLQMNSLRAEDTAVYYCARYWSYPSWWPYRGMDYWGQGTLVTVSS
VL: DIQMTQSPSSLSASVGDRVTITCRASQSVSSAVAWYQQKPGKAPKLLIYSASSLYSGVPSRFSGSRSGTDFTLTISSLQPEDFATYYCQQSSTDPITFGQGTKVEIKR

binding [20]: binds | binding [21]: binds
B2: G9.2-17 mIgG1 (mouse IgG1 version of G9.2-17) (antibody, V domains shown)
VH: EVQLVESGGGLVQPGGSLRLSCAASGFTVSSSSIHWVRQAPGKGLEWVAYISSSSGYTYYADSVKGRFTISADTSKNTAYLQMNSLRAEDTAVYYCARYWSYPSWWPYRGMDYWGQGTLVTVSS
VL: DIQMTQSPSSLSASVGDRVTITCRASQSVSSAVAWYQQKPGKAPKLLIYSASSLYSGVPSRFSGSRSGTDFTLTISSLQPEDFATYYCQQSSTDPITFGQGTKVEIKR

binding [22]: binds | binding [23]: binds | binding [24]: binds | binding [25]: binds
B3: anti-Galectin-9 antibody G9.2-17 (IgG4) (antibody, V domains shown)
VH: EVQLVESGGGLVQPGGSLRLSCAASGFTVSSSSIHWVRQAPGKGLEWVAYISSSSGYTYYADSVKGRFTISADTSKNTAYLQMNSLRAEDTAVYYCARYWSYPSWWPYRGMDYWGQGTLVTVSS
VL: DIQMTQSPSSLSASVGDRVTITCRASQSVSSAVAWYQQKPGKAPKLLIYSASSLYSGVPSRFSGSRSGTDFTLTISSLQPEDFATYYCQQSSTDPITFGQGTKVEIKR
notes: Human IgG4 with S228P (EU); also called G9.2-17(Ig4); G9.2-17 hIgG4 Fab Arm Exchange mut
